Results taken from article PMC10216487.
These are yes or no findings as the source states them, for the method shown. In cells and extracts the contact can be indirect. Some results given as binding are weak or reduced against the parent protein; the word gives no strength.

Sequences of proteins named here, by UniProt entry; tags and fusion partners are left off.
UniProt P51531: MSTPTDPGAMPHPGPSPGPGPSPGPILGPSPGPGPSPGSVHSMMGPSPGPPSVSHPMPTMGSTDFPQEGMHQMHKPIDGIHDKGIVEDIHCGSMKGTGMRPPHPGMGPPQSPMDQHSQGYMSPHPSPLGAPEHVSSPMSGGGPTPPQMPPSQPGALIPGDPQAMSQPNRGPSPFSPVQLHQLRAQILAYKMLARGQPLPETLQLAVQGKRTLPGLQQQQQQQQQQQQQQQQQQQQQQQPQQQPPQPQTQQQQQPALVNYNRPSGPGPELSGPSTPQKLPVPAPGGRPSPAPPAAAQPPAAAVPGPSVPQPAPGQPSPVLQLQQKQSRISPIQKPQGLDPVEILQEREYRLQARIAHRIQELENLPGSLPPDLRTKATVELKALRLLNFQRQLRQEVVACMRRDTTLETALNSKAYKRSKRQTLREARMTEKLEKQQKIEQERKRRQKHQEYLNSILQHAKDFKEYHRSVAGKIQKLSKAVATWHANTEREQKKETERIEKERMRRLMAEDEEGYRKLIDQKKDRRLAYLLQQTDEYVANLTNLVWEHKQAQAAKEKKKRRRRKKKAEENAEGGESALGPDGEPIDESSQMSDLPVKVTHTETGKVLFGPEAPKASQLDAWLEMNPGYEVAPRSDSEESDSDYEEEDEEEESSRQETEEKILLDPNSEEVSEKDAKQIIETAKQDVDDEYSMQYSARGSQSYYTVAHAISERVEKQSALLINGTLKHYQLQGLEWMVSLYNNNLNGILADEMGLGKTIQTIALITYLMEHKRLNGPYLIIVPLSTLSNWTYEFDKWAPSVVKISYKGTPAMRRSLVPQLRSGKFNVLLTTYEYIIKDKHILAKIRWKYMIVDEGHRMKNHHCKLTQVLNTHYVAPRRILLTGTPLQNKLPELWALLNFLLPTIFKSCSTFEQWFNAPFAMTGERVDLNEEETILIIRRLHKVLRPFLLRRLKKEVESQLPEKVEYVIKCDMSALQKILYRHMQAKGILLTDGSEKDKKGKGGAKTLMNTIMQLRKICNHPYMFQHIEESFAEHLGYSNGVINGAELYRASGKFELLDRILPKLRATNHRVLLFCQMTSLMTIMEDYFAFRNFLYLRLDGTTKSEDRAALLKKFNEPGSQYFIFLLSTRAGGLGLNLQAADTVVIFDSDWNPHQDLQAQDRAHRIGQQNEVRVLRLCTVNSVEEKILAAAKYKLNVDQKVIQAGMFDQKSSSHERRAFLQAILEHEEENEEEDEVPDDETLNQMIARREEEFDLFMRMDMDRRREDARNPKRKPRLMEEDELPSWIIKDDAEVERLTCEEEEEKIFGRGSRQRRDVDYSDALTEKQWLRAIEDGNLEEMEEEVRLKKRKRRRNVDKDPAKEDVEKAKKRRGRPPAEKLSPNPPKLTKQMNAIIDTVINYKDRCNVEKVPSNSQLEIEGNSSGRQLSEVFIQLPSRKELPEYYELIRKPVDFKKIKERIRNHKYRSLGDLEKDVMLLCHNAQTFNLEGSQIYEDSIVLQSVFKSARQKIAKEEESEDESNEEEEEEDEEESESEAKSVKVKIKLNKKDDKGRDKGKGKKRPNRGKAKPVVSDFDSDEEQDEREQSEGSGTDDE
UniProt Q92922: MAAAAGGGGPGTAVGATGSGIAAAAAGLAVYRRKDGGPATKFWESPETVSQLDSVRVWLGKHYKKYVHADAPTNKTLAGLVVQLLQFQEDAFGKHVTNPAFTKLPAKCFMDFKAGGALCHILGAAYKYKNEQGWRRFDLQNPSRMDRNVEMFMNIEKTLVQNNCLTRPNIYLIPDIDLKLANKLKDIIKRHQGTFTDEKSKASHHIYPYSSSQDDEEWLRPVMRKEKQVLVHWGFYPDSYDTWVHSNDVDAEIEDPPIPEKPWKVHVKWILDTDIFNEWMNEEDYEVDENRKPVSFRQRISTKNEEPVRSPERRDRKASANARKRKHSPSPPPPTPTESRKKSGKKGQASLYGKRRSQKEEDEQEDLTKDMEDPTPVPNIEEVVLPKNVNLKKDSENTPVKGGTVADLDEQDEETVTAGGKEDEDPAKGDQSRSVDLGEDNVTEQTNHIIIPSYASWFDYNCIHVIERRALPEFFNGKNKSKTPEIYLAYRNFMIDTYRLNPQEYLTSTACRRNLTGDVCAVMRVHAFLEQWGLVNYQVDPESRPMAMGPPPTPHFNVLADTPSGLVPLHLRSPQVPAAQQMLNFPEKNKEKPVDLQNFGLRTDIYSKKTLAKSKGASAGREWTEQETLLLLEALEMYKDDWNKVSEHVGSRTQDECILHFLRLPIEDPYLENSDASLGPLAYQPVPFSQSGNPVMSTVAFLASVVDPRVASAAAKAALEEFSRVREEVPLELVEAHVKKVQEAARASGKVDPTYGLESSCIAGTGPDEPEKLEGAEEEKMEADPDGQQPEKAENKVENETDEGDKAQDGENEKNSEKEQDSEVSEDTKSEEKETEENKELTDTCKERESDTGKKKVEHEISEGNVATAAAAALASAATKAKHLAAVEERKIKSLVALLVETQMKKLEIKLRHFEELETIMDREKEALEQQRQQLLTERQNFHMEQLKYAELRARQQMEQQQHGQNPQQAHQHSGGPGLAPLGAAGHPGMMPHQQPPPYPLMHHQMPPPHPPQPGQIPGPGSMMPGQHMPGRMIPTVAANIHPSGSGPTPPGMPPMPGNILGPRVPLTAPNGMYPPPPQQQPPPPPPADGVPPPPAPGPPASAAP
UniProt Q96RK0: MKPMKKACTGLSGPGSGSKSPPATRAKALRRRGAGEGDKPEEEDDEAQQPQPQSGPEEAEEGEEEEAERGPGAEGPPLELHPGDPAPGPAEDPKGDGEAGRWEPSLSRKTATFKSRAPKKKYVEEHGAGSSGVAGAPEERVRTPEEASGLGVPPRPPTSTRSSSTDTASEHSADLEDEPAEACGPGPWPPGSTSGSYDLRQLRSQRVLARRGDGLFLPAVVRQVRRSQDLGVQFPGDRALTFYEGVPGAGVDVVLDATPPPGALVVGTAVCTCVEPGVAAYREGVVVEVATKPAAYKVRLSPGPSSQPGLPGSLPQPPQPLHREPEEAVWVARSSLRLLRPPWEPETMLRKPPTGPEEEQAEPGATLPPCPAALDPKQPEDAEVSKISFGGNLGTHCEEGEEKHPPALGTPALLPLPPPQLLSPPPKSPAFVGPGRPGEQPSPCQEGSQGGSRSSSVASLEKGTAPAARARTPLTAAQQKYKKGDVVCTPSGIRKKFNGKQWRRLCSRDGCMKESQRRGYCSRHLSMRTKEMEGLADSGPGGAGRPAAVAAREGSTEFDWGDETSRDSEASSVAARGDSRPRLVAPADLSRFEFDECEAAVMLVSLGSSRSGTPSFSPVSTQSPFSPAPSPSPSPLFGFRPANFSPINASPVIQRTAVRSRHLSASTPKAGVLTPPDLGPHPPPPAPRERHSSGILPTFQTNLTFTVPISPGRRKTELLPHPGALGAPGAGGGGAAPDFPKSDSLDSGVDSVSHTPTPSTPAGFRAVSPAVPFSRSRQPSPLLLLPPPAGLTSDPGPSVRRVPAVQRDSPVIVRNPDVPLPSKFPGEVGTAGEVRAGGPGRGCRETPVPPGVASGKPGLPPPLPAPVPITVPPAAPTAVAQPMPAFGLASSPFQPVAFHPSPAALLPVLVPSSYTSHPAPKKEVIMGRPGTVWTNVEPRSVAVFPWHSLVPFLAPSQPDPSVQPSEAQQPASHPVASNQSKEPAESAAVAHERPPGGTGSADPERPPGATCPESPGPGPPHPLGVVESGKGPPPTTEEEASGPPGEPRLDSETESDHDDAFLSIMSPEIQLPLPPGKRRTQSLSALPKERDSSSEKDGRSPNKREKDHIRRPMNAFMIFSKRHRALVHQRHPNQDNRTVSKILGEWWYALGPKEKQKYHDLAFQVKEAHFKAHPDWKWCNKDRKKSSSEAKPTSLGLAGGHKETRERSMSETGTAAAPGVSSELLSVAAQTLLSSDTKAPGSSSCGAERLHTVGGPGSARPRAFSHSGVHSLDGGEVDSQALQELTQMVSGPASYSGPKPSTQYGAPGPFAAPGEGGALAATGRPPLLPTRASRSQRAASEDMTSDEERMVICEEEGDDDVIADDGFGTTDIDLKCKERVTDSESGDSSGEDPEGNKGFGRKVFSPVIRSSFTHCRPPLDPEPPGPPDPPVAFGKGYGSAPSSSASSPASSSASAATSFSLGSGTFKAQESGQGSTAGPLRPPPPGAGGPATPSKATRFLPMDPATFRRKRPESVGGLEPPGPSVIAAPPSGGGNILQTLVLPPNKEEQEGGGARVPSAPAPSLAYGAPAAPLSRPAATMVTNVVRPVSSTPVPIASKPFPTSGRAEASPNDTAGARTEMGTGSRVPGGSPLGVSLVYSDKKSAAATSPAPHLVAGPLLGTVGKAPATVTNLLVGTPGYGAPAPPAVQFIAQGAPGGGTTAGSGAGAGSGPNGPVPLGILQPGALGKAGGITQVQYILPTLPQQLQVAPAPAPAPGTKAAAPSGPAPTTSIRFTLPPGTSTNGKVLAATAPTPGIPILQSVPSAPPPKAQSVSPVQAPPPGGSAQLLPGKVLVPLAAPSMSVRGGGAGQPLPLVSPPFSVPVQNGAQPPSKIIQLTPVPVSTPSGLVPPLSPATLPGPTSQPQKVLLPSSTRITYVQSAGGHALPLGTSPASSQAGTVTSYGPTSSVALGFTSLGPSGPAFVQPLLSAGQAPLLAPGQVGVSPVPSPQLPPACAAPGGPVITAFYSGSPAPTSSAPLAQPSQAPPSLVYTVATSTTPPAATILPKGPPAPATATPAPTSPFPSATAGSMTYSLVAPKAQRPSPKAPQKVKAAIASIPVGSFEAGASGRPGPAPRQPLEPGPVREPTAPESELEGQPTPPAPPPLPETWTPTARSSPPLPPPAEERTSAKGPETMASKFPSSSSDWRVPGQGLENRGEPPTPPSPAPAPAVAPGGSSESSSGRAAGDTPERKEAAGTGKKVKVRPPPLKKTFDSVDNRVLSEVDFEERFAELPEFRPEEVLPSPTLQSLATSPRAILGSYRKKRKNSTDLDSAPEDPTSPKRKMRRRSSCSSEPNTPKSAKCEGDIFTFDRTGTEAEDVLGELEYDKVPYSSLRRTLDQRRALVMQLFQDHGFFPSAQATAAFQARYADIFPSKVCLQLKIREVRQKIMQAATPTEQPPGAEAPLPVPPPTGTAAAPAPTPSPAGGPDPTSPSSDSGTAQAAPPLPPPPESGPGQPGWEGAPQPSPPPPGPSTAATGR

Columns and labels:
[1] = molecular target: SMARCA2 (human (endogenous in HEK293A and NHA)) (UniProt P51531); test: co-IP; reciprocal IP: SWI/SNF subunit immunoprecipitated from nuclear lysates of the parental NHA-CIC^WT line, CIC detected by western blot
[2] = molecular target: SMARCC1 (human (endogenous in HEK293A and NHA)) (UniProt Q92922); test: as above

binding [1]: binds | binding [2]: binds
Substance: Capicua (CIC), endogenous (from UniProt Q96RK0 1-2517)
